Test results published in ChEMBL document CHEMBL4316593 (Eur J Med Chem, 2019).
This continues a long series; more values of the same kind are listed elsewhere.

How the values were obtained:
Assay type in all cases: cell-based
Details in all cases: U-87MG ATCC
[1] = Inhibition of RTK/PI3K/AKT/mTOR signaling in human U87 cells assessed as down regulation of CLU gene expression at cytotoxic IC50 measured after 48 hrs relative to control
[2] = Inhibition of RTK/PI3K/AKT/mTOR signaling in human U87 cells assessed as down regulation of RECQL gene expression at cytotoxic IC50 measured after 48 hrs relative to control
[3] = Inhibition of RTK/PI3K/AKT/mTOR signaling in human U87 cells assessed as down regulation of NUDT1 gene expression at cytotoxic IC50 measured after 48 hrs relative to control
[4] = Inhibition of RTK/PI3K/AKT/mTOR signaling in human U87 cells assessed as down regulation of SAMHD1 gene expression at cytotoxic IC50 measured after 48 hrs relative to control
[5] = Inhibition of RTK/PI3K/AKT/mTOR signaling in human U87 cells assessed as down regulation of PHLPP2 gene expression at cytotoxic IC50 measured after 48 hrs relative to control
[6] = Inhibition of RTK/PI3K/AKT/mTOR signaling in human U87 cells assessed as down regulation of CENPL gene expression at cytotoxic IC50 measured after 48 hrs relative to control
[7] = Inhibition of RTK/PI3K/AKT/mTOR signaling in human U87 cells assessed as down regulation of HAUS5 gene expression at cytotoxic IC50 measured after 48 hrs relative to control
[8] = Inhibition of RTK/PI3K/AKT/mTOR signaling in human U87 cells assessed as down regulation of ATOX1 gene expression at cytotoxic IC50 measured after 48 hrs relative to control
[9] = Inhibition of RTK/PI3K/AKT/mTOR signaling in human U87 cells assessed as down regulation of GXYLT1 gene expression at cytotoxic IC50 measured after 48 hrs relative to control
[10] = Inhibition of RTK/PI3K/AKT/mTOR signaling in human U87 cells assessed as down regulation of HSPA8 gene expression at cytotoxic IC50 measured after 48 hrs relative to control
[11] = Inhibition of RTK/PI3K/AKT/mTOR signaling in human U87 cells assessed as down regulation of BTRC gene expression at cytotoxic IC50 measured after 48 hrs relative to control
[12] = Inhibition of RTK/PI3K/AKT/mTOR signaling in human U87 cells assessed as down regulation of SHMT1 gene expression at cytotoxic IC50 measured after 48 hrs relative to control
[13] = Inhibition of RTK/PI3K/AKT/mTOR signaling in human U87 cells assessed as down regulation of LMNB1 gene expression at cytotoxic IC50 measured after 48 hrs relative to control
[14] = Inhibition of RTK/PI3K/AKT/mTOR signaling in human U87 cells assessed as down regulation of RNF115 gene expression at cytotoxic IC50 measured after 48 hrs relative to control
[15] = Inhibition of RTK/PI3K/AKT/mTOR signaling in human U87 cells assessed as down regulation of POLE3 gene expression at cytotoxic IC50 measured after 48 hrs relative to control
[16] = Inhibition of RTK/PI3K/AKT/mTOR signaling in human U87 cells assessed as down regulation of RNF19B gene expression at cytotoxic IC50 measured after 48 hrs relative to control
[17] = Inhibition of RTK/PI3K/AKT/mTOR signaling in human U87 cells assessed as down regulation of UBALD2 gene expression at cytotoxic IC50 measured after 48 hrs relative to control
[18] = Inhibition of RTK/PI3K/AKT/mTOR signaling in human U87 cells assessed as down regulation of TDP2 gene expression at cytotoxic IC50 measured after 48 hrs relative to control
[19] = Inhibition of RTK/PI3K/AKT/mTOR signaling in human U87 cells assessed as down regulation of TAF15 gene expression at cytotoxic IC50 measured after 48 hrs relative to control
[20] = Inhibition of RTK/PI3K/AKT/mTOR signaling in human U87 cells assessed as up regulation of RAB3IL1 gene expression at cytotoxic IC50 measured after 48 hrs relative to control
[21] = Inhibition of RTK/PI3K/AKT/mTOR signaling in human U87 cells assessed as up regulation of follistatin like 3 gene expression at cytotoxic IC50 measured after 48 hrs relative to control
[22] = Inhibition of RTK/PI3K/AKT/mTOR signaling in human U87 cells assessed as up regulation of adrenomedullin gene expression at cytotoxic IC50 measured after 48 hrs relative to control
[23] = Inhibition of RTK/PI3K/AKT/mTOR signaling in human U87 cells assessed as up regulation of ADAM metallopeptidase domain 19 gene expression at cytotoxic IC50 measured after 48 hrs relative to control
[24] = Inhibition of RTK/PI3K/AKT/mTOR signaling in human U87 cells assessed as up regulation of AT-hook transcription factor gene expression at cytotoxic IC50 measured after 48 hrs relative to control
[25] = Inhibition of RTK/PI3K/AKT/mTOR signaling in human U87 cells assessed as up regulation of laminin subunit beta 2 gene expression at cytotoxic IC50 measured after 48 hrs relative to control
[26] = Inhibition of RTK/PI3K/AKT/mTOR signaling in human U87 cells assessed as up regulation of pleckstrin homology and RhoGEF domain containing G1 gene expression at cytotoxic IC50 measured after 48 hrs relative to control
[27] = Inhibition of RTK/PI3K/AKT/mTOR signaling in human U87 cells assessed as up regulation of SH3 domain binding kinase 1 gene expression at cytotoxic IC50 measured after 48 hrs relative to control
[28] = Inhibition of RTK/PI3K/AKT/mTOR signaling in human U87 cells assessed as up regulation of ankyrin repeat and zinc finger domain containing 1 gene expression at cytotoxic IC50 measured after 48 hrs relative to control
[29] = Inhibition of RTK/PI3K/AKT/mTOR signaling in human U87 cells assessed as up regulation of Kruppel like factor 16 gene expression at cytotoxic IC50 measured after 48 hrs relative to control
[30] = Inhibition of RTK/PI3K/AKT/mTOR signaling in human U87 cells assessed as up regulation of CUEDC2 gene expression at cytotoxic IC50 measured after 48 hrs relative to control
[31] = Inhibition of RTK/PI3K/AKT/mTOR signaling in human U87 cells assessed as up regulation of RPL29 gene expression at cytotoxic IC50 measured after 48 hrs relative to control
[32] = Inhibition of RTK/PI3K/AKT/mTOR signaling in human U87 cells assessed as up regulation of PACSIN2 gene expression at cytotoxic IC50 measured after 48 hrs relative to control

SMILES: CC(=O)C(=NNc1ccccc1C#N)C(C)=O
- log2FC [1]: -3.32
- log2FC [2]: -1.88
- log2FC [3]: -1.39
- log2FC [4]: -1.25
- log2FC [5]: -1.17
- log2FC [6]: -1.15
- log2FC [7]: -1.09
- log2FC [8]: -1.07
- log2FC [9]: -1.02
- log2FC [10]: -1.57
- log2FC [11]: -0.852
- log2FC [12]: -0.811
- log2FC [13]: -0.796
- log2FC [14]: -0.794
- log2FC [15]: -0.794
- log2FC [16]: -0.727
- log2FC [17]: -0.689
- log2FC [18]: -0.622
- log2FC [19]: -0.487
- log2FC [20]: 1.87
- log2FC [21]: 1.36
- log2FC [22]: 1.29
- log2FC [23]: 1.28
- log2FC [24]: 0.964
- log2FC [25]: 0.828
- log2FC [26]: 0.727
- log2FC [27]: 0.714
- log2FC [28]: 0.686
- log2FC [29]: 0.67
- log2FC [30]: 0.605
- log2FC [31]: 0.53
- log2FC [32]: 0.418
